Values from PubChem BioAssay AID1259254 (NCATS, 2017).
In all, the deposit lists about 59,000 reagents; below is a part drawn at random. About 1,550 of them (2.6%) count as active. 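G2 share is only a proxy for re-replication; each gene was hit by three separate siRNAs, and active genes were retested.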 Unmarked entries are inactive. Further read-outs or replicates are left out here. Not stated in the record: the amount of reagent.

Purpose: 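Genome-wide screen for genes that prevent DNA re-replication in cancer cells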 (primary screen)
System: human HCT116 colorectal cancer cells
Reagents: single siRNA against human genes
Time to read-out: 3 days
Measurement: 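Imaged Hoechst DNA stain sorts each cell into a cycle phase by DNA amount; per plate, G2 fraction set to 0% for non-targeting and 100% for GMNN siRNA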
Direction: G2 robust z-score and G2 cells, % of GMNN control: higher = more G2 cells, more excess DNA replication
Active means: 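Active siRNAs have a G2 robust z of 5 or more median absolute deviations over the median, which in these data means about 38% or higher of GMNN control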

After knock-down of SCLY [SID160740969] the results were G2 robust z-score -0.529; G2 cells, % of GMNN control -0.751.
For SCLY [SID160740970], the values are G2 robust z-score -0.0647; G2 cells, % of GMNN control 2.51.
SCLY [SID160740971] scored G2 robust z-score -0.345; G2 cells, % of GMNN control 0.538.
SNX2 [SID160717157] scored G2 robust z-score -0.688; G2 cells, % of GMNN control -1.87.
SNX2 [SID160717158] gave G2 robust z-score 1.18; G2 cells, % of GMNN control 11.2.
After knock-down of SNX2 [SID160717160], the screen gave G2 robust z-score 0.744; G2 cells, % of GMNN control 8.2.
Knock-down of RPP25 [SID160742477] gave: G2 robust z-score 2.01; G2 cells, % of GMNN control 17.1.
Silencing of RPP25 [SID160742478] resulted in: G2 robust z-score -0.363; G2 cells, % of GMNN control 0.415.
Silencing of RPP25 [SID160742479] came out at: G2 robust z-score 0.627; G2 cells, % of GMNN control 7.38.
Silencing of DLG3 [SID160754608] resulted in: G2 robust z-score 2.94; G2 cells, % of GMNN control 23.7.
Knock-down of DLG3 [SID160754618] resulted in: G2 robust z-score -0.649; G2 cells, % of GMNN control -1.6.
With knock-down of DLG3 [SID160754628], the screen gave G2 robust z-score -0.915; G2 cells, % of GMNN control -3.47.
NFIB [SID160778008] gave G2 robust z-score -1.35; G2 cells, % of GMNN control -6.56.
Depletion of NFIB [SID160778009] came out at: G2 robust z-score 0.856; G2 cells, % of GMNN control 8.99.
Against NFIB [SID160778010], the entry reads G2 robust z-score 4.04; G2 cells, % of GMNN control 31.4.
With knock-down of DPAGT1 [SID160755853], the screen gave G2 robust z-score -0.437; G2 cells, % of GMNN control -0.108.
For DPAGT1 [SID160755863], the entry reads G2 robust z-score -1.35; G2 cells, % of GMNN control -6.51.
With knock-down of DPAGT1 [SID160755871], the screen gave G2 robust z-score -0.571; G2 cells, % of GMNN control -1.05.
Knock-down of TOB2 [SID160729176] resulted in: G2 robust z-score 2.53; G2 cells, % of GMNN control 20.8.
Silencing of TOB2 [SID160729177] gave: G2 robust z-score -0.893; G2 cells, % of GMNN control -3.32.
Depletion of TOB2 [SID160729178] resulted in: G2 robust z-score -0.463; G2 cells, % of GMNN control -0.29.
For RC3H2 [SID160741890], the values are G2 robust z-score -1.38; G2 cells, % of GMNN control -6.72.
RC3H2 [SID160741892] showed G2 robust z-score 2.63; G2 cells, % of GMNN control 21.4.
For RC3H2 [SID160741893], the values are G2 robust z-score 3.4; G2 cells, % of GMNN control 26.9.
